The list shows a part of the results.
Assays:
Assay in all cases: log2 fold change, soluble protein after heating vs DMSO (PISA); higher = thermal stabilisation; K562 cells, 10 uM, 30 min; active = over 0.2 and 3.5 SD of the protein, either way, in both replicates (recomputed)
saracatinib = compound: CN1CCN(CCOc2cc(OC3CCOCC3)c3c(Nc4c(Cl)ccc5c4OCO5)ncnc3c2)CC1 [saracatinib]
Summary of the method: (§1)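 K562 cells at 2×10^6 cells/mL were treated with 10 μM compound for 30 min. Aliquots were heated for 3 min across 48°C-58°C, pooled, and extracted in PBS with 0.5% NP-40 at 4°C; soluble protein was the supernatant after 21,000xg for 90 min. Soluble protein was quantified by TMTpro 16plex LC-MS/MS with channel sums equalised, and reported as log2 fold change in thermal stability against DMSO controls, with values from duplicates.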

By UniProt entry, the sequences of proteins in these tests, tags left out. Where a name states a change or a piece, a line headed by the entry shows the natural chain unless it says otherwise.
UniProt P11166: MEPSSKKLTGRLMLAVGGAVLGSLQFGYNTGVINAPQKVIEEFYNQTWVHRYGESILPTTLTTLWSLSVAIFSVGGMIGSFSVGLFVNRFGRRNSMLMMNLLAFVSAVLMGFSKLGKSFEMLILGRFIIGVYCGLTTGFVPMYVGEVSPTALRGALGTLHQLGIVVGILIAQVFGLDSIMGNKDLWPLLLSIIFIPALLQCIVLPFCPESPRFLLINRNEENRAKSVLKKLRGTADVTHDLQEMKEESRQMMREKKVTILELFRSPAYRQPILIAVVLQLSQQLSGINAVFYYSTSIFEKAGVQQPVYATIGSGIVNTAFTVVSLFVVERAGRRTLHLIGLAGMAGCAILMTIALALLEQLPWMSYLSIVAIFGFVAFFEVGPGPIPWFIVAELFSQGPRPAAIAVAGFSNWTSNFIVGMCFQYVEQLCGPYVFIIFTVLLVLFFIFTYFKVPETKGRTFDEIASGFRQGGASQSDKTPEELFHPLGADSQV
UniProt P43007: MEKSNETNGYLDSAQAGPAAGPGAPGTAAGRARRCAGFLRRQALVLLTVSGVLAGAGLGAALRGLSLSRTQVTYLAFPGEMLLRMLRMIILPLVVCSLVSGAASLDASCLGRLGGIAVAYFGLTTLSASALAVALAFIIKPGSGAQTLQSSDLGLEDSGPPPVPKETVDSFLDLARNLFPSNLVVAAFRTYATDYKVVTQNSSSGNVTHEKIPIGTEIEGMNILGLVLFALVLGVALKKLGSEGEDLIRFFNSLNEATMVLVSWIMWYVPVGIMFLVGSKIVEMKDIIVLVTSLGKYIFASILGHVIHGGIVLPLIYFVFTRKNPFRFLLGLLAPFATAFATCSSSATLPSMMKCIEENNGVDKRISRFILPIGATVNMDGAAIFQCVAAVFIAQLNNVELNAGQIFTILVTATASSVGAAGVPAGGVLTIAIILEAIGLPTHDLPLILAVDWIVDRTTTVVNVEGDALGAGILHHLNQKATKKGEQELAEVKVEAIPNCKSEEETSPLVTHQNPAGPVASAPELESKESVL
UniProt Q9BV35: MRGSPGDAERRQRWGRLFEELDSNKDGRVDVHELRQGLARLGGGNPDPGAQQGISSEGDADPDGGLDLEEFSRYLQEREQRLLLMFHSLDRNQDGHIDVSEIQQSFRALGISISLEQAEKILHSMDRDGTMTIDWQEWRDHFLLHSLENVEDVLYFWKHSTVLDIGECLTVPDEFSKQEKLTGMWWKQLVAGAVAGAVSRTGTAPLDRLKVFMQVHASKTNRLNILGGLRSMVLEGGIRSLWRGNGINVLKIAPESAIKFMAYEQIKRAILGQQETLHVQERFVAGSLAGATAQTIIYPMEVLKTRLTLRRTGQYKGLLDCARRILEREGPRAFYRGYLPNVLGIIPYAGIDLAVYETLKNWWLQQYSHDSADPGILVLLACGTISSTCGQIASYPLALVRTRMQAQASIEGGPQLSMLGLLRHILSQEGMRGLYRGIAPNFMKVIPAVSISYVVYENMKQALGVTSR
UniProt Q9Y6M5: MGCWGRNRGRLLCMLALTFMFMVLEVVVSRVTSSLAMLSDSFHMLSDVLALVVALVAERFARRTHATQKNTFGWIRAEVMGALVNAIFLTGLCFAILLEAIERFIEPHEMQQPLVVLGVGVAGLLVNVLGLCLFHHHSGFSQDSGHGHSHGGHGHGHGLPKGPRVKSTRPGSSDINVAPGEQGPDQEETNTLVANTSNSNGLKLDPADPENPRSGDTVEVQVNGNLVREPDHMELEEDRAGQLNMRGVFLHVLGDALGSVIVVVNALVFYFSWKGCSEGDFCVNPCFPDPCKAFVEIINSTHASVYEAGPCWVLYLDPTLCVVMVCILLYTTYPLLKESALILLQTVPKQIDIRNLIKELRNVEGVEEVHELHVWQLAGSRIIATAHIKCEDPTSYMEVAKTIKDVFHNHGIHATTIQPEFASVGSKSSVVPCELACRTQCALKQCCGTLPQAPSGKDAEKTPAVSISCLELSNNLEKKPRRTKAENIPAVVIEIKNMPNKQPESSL
UniProt Q6NXT4: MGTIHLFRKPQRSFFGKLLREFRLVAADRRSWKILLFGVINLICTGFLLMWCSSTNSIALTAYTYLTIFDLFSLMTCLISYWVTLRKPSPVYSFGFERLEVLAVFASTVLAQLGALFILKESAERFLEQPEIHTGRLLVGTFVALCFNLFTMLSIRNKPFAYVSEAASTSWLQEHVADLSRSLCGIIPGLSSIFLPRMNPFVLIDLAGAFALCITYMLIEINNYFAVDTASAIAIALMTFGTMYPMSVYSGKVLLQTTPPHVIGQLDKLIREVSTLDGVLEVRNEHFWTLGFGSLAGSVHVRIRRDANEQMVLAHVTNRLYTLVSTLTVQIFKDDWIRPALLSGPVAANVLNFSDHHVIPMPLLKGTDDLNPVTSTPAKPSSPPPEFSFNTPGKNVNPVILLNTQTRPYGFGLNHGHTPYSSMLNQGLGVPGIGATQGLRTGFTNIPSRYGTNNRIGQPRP
UniProt P55011: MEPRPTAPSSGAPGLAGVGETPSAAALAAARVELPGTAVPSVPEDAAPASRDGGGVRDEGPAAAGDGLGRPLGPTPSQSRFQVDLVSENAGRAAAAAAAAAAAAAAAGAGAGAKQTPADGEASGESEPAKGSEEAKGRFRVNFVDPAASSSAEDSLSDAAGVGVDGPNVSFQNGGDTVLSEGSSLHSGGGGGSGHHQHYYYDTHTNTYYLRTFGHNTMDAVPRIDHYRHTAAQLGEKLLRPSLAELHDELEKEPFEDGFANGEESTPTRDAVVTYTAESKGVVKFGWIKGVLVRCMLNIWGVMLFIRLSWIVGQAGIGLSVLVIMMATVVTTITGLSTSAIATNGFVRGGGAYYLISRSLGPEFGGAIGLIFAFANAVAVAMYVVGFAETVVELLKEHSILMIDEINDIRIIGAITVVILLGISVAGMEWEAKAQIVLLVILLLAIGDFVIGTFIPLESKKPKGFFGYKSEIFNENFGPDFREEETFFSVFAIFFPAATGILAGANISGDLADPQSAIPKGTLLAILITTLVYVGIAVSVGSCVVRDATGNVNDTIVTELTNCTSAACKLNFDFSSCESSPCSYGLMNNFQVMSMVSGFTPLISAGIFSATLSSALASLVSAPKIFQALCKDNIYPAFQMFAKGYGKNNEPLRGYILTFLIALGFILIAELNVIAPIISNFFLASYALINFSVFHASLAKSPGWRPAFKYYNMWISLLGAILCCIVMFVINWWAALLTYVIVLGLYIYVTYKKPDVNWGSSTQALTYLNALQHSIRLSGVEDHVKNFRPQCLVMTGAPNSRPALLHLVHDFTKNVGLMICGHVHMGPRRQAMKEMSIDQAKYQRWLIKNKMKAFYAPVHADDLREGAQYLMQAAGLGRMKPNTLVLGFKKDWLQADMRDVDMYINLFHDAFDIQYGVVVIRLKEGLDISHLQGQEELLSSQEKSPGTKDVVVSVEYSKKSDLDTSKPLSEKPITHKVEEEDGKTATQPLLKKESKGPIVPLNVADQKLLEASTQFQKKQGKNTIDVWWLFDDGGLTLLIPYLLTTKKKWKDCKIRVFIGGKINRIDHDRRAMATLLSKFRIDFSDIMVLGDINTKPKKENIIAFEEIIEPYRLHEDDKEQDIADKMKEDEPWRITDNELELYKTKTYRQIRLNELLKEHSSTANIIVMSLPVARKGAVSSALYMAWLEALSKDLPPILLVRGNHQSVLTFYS
UniProt Q96BI1: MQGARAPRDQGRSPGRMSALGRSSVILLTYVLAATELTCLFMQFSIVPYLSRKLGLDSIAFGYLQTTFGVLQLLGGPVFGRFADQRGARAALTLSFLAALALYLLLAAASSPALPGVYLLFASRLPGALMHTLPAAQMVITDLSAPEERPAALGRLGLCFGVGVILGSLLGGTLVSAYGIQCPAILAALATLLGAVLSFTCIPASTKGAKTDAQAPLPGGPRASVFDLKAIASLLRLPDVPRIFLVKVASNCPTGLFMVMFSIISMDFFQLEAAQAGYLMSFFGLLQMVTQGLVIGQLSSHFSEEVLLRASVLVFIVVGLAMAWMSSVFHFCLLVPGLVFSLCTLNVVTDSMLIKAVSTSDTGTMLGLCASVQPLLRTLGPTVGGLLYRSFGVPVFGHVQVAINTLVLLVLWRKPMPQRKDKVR
UniProt Q8WUM9: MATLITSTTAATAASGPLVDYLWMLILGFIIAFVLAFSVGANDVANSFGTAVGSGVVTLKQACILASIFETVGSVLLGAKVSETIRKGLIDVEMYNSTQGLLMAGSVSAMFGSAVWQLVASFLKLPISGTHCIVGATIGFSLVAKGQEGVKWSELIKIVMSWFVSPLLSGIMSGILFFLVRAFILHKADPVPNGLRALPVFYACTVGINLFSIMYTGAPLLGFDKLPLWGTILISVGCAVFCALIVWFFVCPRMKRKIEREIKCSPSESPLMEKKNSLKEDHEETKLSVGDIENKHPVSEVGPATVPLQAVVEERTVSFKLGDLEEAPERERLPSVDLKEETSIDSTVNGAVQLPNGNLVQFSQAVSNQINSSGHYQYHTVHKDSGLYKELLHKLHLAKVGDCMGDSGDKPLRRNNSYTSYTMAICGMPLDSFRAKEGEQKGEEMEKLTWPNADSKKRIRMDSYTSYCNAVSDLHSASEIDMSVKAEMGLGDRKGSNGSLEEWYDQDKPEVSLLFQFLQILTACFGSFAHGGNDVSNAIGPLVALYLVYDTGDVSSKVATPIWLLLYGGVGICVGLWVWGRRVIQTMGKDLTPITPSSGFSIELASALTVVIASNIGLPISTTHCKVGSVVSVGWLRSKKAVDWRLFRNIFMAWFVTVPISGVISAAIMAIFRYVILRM
UniProt Q9H2H9: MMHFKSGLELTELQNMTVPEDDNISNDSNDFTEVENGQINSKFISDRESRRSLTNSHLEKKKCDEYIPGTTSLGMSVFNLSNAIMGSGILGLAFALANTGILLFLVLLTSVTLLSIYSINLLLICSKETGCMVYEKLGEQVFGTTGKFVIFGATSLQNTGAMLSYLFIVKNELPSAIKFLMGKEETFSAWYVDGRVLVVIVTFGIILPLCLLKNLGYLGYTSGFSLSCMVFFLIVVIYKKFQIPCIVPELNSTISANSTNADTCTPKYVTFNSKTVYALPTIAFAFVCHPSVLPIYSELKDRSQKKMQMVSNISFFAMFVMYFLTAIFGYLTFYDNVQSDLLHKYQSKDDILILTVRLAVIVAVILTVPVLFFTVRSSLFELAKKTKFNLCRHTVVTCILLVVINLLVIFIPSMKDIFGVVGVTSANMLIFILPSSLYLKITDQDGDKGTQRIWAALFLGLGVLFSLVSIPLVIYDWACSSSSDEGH
UniProt P08195: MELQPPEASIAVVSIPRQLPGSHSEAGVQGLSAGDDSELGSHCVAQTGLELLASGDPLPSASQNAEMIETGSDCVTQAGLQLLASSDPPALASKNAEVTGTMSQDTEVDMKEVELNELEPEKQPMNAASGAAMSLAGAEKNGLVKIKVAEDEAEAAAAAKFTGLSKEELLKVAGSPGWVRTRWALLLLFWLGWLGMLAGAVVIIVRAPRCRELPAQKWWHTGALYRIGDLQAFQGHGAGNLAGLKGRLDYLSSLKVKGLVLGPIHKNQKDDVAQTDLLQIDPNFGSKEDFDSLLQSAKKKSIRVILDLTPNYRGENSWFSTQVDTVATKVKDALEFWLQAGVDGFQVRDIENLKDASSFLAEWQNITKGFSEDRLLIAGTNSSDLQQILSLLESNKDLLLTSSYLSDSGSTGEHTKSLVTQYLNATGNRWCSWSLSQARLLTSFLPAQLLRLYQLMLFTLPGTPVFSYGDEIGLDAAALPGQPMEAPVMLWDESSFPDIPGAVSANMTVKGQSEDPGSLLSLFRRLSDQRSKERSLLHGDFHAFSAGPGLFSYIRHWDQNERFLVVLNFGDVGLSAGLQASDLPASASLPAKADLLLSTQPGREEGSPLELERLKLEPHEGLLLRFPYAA
UniProt O00400: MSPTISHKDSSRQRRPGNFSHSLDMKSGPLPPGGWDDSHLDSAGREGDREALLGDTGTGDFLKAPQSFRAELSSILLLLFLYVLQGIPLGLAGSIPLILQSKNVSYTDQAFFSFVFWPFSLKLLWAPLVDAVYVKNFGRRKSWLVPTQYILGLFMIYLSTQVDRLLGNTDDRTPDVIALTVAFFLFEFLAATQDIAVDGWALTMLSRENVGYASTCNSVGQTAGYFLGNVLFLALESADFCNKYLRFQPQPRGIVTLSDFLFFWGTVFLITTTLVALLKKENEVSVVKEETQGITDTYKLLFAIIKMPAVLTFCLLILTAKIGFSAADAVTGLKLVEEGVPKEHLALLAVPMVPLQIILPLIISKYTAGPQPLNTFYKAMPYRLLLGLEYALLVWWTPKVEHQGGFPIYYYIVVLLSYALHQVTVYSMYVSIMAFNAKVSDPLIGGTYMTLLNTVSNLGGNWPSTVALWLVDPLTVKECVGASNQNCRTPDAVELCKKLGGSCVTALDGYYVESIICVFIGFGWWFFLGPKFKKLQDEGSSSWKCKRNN

sotrastaurin = compound: CN1CCN(c2nc(C3=C(c4c[nH]c5ccccc45)C(=O)NC3=O)c3ccccc3n2)CC1 [sotrastaurin]
Summary of the method: as §1

alvocidib = compound: CN1CC[C@H](c2c(O)cc(O)c3c(=O)cc(-c4ccccc4Cl)oc23)[C@H](O)C1 [alvocidib]
Summary of the method: as §1

Tubastatin A = compound: CN1CCc2c(c3ccccc3n2Cc2ccc(C(=O)NO)cc2)C1 [Tubastatin A]
Summary of the method: as §1

[1] = compound: CNC(=O)C1=CC=CC=C1NC2=NC(=NC=C2Cl)NC3=C(C=C(C=C3)N4CCOCC4)OC
Summary of the method: as §1

defactinib = compound: CNC(=O)c1ccc(Nc2ncc(C(F)(F)F)c(NCc3nccnc3N(C)S(C)(=O)=O)n2)cc1 [defactinib]
Summary of the method: as §1

rucaparib = compound: CNCc1ccc(-c2[nH]c3cc(F)cc4c3c2CCNC4=O)cc1 [rucaparib]
Summary of the method: as §1

[2] = compound: CNc1nc(-c2ccc3c(N)n[nH]c3c2)cc(N2C[C@@H](C(=O)NC3CCCCC3)CC[C@H]2C)n1
Summary of the method: as §1

encorafenib = compound: COC(=O)N[C@@H](C)CNc1nccc(-c2cn(C(C)C)nc2-c2cc(Cl)cc(NS(C)(=O)=O)c2F)n1 [encorafenib]
Summary of the method: as §1

[3] = compound: COC(=O)[C@H](CCSC)NC(=O)C1=C(C=C(C=C1)NC[C@H](CS)N)C2=CC=CC=C2
Summary of the method: as §1

[4] = compound: COC1=CC=C(C=C1)CN2C=CC3=C2C=C(C=C3)C(=O)NO
Summary of the method: as §1

filanesib = compound: CON(C)C(=O)N1N=C(c2cc(F)ccc2F)S[C@@]1(CCCN)c1ccccc1 [filanesib]
Summary of the method: as §1

zotarolimus = compound: CO[C@H]1C[C@@H]2CC[C@@H](C)[C@@](O)(O2)C(=O)C(=O)N2CCCC[C@H]2C(=O)O[C@H]([C@H](C)C[C@@H]2CC[C@H](n3cnnn3)[C@H](OC)C2)CC(=O)[C@H](C)/C=C(\C)[C@@H](O)[C@@H](OC)C(=O)[C@H](C)C[C@H](C)/C=C/C=C/C=C/1C [zotarolimus]
Summary of the method: as §1

idasanutlin = compound: COc1cc(C(=O)O)ccc1NC(=O)[C@@H]1N[C@@H](CC(C)(C)C)[C@](C#N)(c2ccc(Cl)cc2F)[C@H]1c1cccc(Cl)c1F [idasanutlin]
Summary of the method: as §1

alisertib = compound: COc1cc(Nc2ncc3c(n2)-c2ccc(Cl)cc2C(c2c(F)cccc2OC)=NC3)ccc1C(=O)O [alisertib]
Summary of the method: as §1

[5] = compound: COc1cc2nc(-c3cc(F)ccc3O)nc(N[C@@H]3CNC[C@H]3C(C)(C)O)c2cc1OC
Summary of the method: as §1

gefitinib = compound: COc1cc2ncnc(Nc3ccc(F)c(Cl)c3)c2cc1OCCCN1CCOCC1 [gefitinib]
Summary of the method: as §1

[6] = compound: COc1cccc2cc(-c3nc([C@H]4CC[C@H](C(=O)O)CC4)n4ncnc(N)c34)[nH]c12
Summary of the method: as §1

lapatinib = compound: CS(=O)(=O)CCNCc1ccc(-c2ccc3ncnc(Nc4ccc(OCc5cccc(F)c5)c(Cl)c4)c3c2)o1 [lapatinib]
Summary of the method: as §1

pictilisib = compound: CS(=O)(=O)N1CCN(Cc2cc3nc(-c4cccc5[nH]ncc45)nc(N4CCOCC4)c3s2)CC1 [pictilisib]
Summary of the method: as §1

Measured: log2 fold change

SLC2A1 (UniProt P11166)
inactive: saracatinib -0.009 | sotrastaurin 0.072 | alvocidib -0.003 | Tubastatin A -0.034 | [1] -0.05 | defactinib -0.026 | rucaparib -0.05 | [2] -0.006 | encorafenib -0.005 | [3] 0.027 | [4] 0.002 | filanesib 0.006 | zotarolimus -0.011 | idasanutlin -0.006 | alisertib -0.104 | [5] 0.055 | gefitinib -0.026 | [6] 0.068 | lapatinib -0.019 | pictilisib 0.042

SLC1A4 (UniProt P43007)
inactive: saracatinib 0.078 | sotrastaurin 0.023 | alvocidib 0.004 | Tubastatin A -0.027 | [1] -0.095 | defactinib -0.009 | rucaparib -0.045 | [2] 0.074 | encorafenib 0.012 | [3] 0.032 | [4] -0.102 | filanesib -0.006 | zotarolimus -0.066 | idasanutlin 0.017 | alisertib -0.135 | [5] 0.06 | gefitinib 0.033 | [6] 0.098 | lapatinib 0.016 | pictilisib 0.128

SLC43A1 (UniProt O75387)
inactive: saracatinib 0.066 | sotrastaurin 0.037 | alvocidib -0.083 | Tubastatin A 0.036 | [1] -0.05 | defactinib -0.122 | rucaparib 0.059 | [2] 0.06 | encorafenib -0.041 | [3] 0.048 | [4] -0.037 | filanesib 0.052 | zotarolimus -0.082 | idasanutlin -0.061 | alisertib 0.005 | [5] 0.065 | gefitinib 0.047 | [6] 0.054 | lapatinib -0.045 | pictilisib 0.118

SLC7A5 (UniProt Q01650)
inactive: saracatinib 0.062 | sotrastaurin -0.029 | alvocidib -0.017 | Tubastatin A -0.008 | [1] -0.039 | defactinib -0.077 | rucaparib -0.064 | [2] 0.053 | encorafenib 0.029 | [3] -0.021 | [4] 0.004 | filanesib -0.025 | zotarolimus -0.013 | idasanutlin 0.026 | alisertib 0.008 | [5] -0.1 | gefitinib -0.065 | [6] 0.068 | lapatinib 0.051 | pictilisib 0.067

SLC25A23 isoform 3 (UniProt Q9BV35)
inactive: saracatinib -0.07 | sotrastaurin -0.101 | alvocidib -0.035 | Tubastatin A -0.008 | [1] -0.012 | defactinib 0.044 | rucaparib 0.047 | [2] -0.069 | encorafenib -0.076 | [3] -0.057 | [4] 0.099 | filanesib 0.087 | zotarolimus -0.055 | idasanutlin -0.002 | alisertib 0.077 | [5] -0.021 | gefitinib 0 | [6] 0.119 | lapatinib 0.019 | pictilisib 0.06

SLC30A1 (UniProt Q9Y6M5)
inactive: saracatinib 0.062 | sotrastaurin -0.025 | alvocidib -0.022 | Tubastatin A -0.025 | [1] -0.024 | defactinib -0.029 | rucaparib -0.004 | [2] -0.021 | encorafenib -0.016 | [3] 0.025 | [4] 0.05 | filanesib 0.069 | zotarolimus -0.032 | idasanutlin 0.048 | alisertib -0.115 | [5] 0.061 | gefitinib 0.025 | [6] 0.063 | lapatinib -0.002 | pictilisib 0.038

SLC30A6 isoform 2 (UniProt Q6NXT4)
inactive: saracatinib -0.031 | sotrastaurin 0.066 | alvocidib -0.059 | Tubastatin A 0.026 | [1] -0.056 | defactinib -0.056 | rucaparib -0.046 | [2] 0 | encorafenib -0.008 | [3] 0.142 | [4] -0.028 | filanesib -0.076 | zotarolimus -0.002 | idasanutlin 0.017 | alisertib 0.014 | [5] -0.017 | gefitinib 0.006 | [6] 0.049 | lapatinib -0.042 | pictilisib -0.091

SLC12A2 (UniProt P55011)
inactive: saracatinib 0.051 | sotrastaurin 0.024 | alvocidib -0.05 | Tubastatin A -0.012 | [1] -0.067 | defactinib -0.011 | rucaparib -0.004 | [2] 0.041 | encorafenib 0.005 | [3] 0.003 | [4] -0.01 | filanesib 0.013 | zotarolimus 0.018 | idasanutlin -0.026 | alisertib -0.046 | [5] 0.068 | gefitinib 0.017 | [6] 0.047 | lapatinib -0.001 | pictilisib -0.013

SLC35F2 (UniProt Q8IXU6)
inactive: saracatinib 0.172 | sotrastaurin 0.075 | alvocidib -0.02 | Tubastatin A -0.005 | [1] -0.031 | defactinib -0.018 | rucaparib 0.011 | [2] -0.032 | encorafenib -0.013 | [3] -0.02 | [4] 0.195 | filanesib 0.068 | zotarolimus -0.037 | idasanutlin 0.089 | alisertib -0.13 | [5] -0.011 | gefitinib -0.042 | [6] 0.091 | lapatinib -0.03 | pictilisib -0.04

SLC22A18 (UniProt Q96BI1)
inactive: saracatinib 0.058 | sotrastaurin 0.056 | alvocidib -0.128 | Tubastatin A -0.019 | [1] 0.022 | defactinib -0.022 | rucaparib -0.046 | [2] -0.009 | encorafenib -0.012 | [3] -0.018 | [4] -0.036 | filanesib -0.114 | zotarolimus -0.05 | alisertib 0.022 | [5] -0.024 | gefitinib 0.047 | [6] 0.074 | lapatinib 0.014 | pictilisib 0.097

SLC20A1 (UniProt Q8WUM9)
inactive: saracatinib -0.016 | sotrastaurin 0.019 | alvocidib 0.006 | Tubastatin A 0.015 | [1] 0.005 | defactinib -0.004 | rucaparib -0.008 | [2] 0.012 | encorafenib 0.008 | [3] 0 | [4] -0.065 | filanesib 0.022 | zotarolimus -0.048 | idasanutlin 0.075 | alisertib -0.103 | [5] 0.105 | gefitinib 0.029 | [6] 0.007 | lapatinib -0.082 | pictilisib 0.086

SLC38A1 (UniProt Q9H2H9)
inactive: saracatinib 0.065 | sotrastaurin 0.068 | alvocidib -0.035 | Tubastatin A -0.073 | [1] -0.018 | defactinib -0.021 | rucaparib -0.141 | [2] -0.007 | encorafenib 0.116 | [3] 0.054 | [4] -0.081 | filanesib -0.037 | zotarolimus -0.036 | idasanutlin -0.096 | alisertib -0.034 | [5] -0.09 | gefitinib -0.005 | [6] 0.019 | lapatinib -0.001 | pictilisib -0.064

SLC3A2 isoform 3 (UniProt P08195)
inactive: saracatinib 0.009 | sotrastaurin 0.033 | alvocidib -0.049 | Tubastatin A -0.005 | [1] -0.042 | defactinib -0.042 | rucaparib 0.017 | [2] 0.063 | encorafenib -0.003 | [3] 0.017 | [4] 0.018 | filanesib 0.019 | zotarolimus -0.015 | idasanutlin 0.005 | alisertib -0.084 | [5] 0.017 | gefitinib 0.024 | [6] 0.027 | lapatinib 0.011 | pictilisib 0.004

Pulled one by one from the entries so far (two):
SLC22A18 (UniProt Q96BI1)
inactive: saracatinib 0.058 | sotrastaurin 0.056 | alvocidib -0.128 | Tubastatin A -0.019 | [1] 0.022 | defactinib -0.022 | rucaparib -0.046 | [2] -0.009 | encorafenib -0.012 | [3] -0.018 | [4] -0.036 | filanesib -0.114 | zotarolimus -0.05 | alisertib 0.022 | [5] -0.024 | gefitinib 0.047 | [6] 0.074 | lapatinib 0.014 | pictilisib 0.097

SLC35F2 (UniProt Q8IXU6)
inactive: saracatinib 0.172 | sotrastaurin 0.075 | alvocidib -0.02 | Tubastatin A -0.005 | [1] -0.031 | defactinib -0.018 | rucaparib 0.011 | [2] -0.032 | encorafenib -0.013 | [3] -0.02 | [4] 0.195 | filanesib 0.068 | zotarolimus -0.037 | idasanutlin 0.089 | alisertib -0.13 | [5] -0.011 | gefitinib -0.042 | [6] 0.091 | lapatinib -0.03 | pictilisib -0.04

Going on with the list:

SLC33A1 (UniProt O00400)
inactive: saracatinib 0.004 | sotrastaurin -0.083 | alvocidib -0.05 | Tubastatin A -0.016 | [1] 0.016 | defactinib -0.044 | rucaparib -0.099 | [2] -0.068 | encorafenib 0.029 | [3] -0.055 | [4] 0.03 | filanesib -0.068 | zotarolimus 0.028 | idasanutlin -0.005 | alisertib 0.012 | [5] 0.01 | gefitinib 0 | [6] 0.002 | lapatinib 0.033 | pictilisib 0.054

SLC25A22 (UniProt Q9H936)
inactive: saracatinib 0.01 | sotrastaurin 0.05 | alvocidib -0.011 | Tubastatin A -0.03 | [1] -0.012 | defactinib -0.008 | rucaparib -0.021 | [2] -0.064 | encorafenib -0.003 | [3] 0.069 | [4] -0.044 | filanesib -0.034 | zotarolimus -0.03 | idasanutlin -0.024 | alisertib -0.016 | [5] 0.036 | gefitinib 0.006 | [6] 0.067 | lapatinib -0.023 | pictilisib 0.011
